The record followed here is article doi:10.1101/645689.

For experiment [1], the target named is T1, dihydrolipoyl succinyltransferase (DLST), E2 subunit, mouse (mouse (endogenous in DBA/2J liver)) (UniProt Q9D2G2).
T1 sequence (chain, lipoic moiety (detected with an anti-lipoic acid antibody)): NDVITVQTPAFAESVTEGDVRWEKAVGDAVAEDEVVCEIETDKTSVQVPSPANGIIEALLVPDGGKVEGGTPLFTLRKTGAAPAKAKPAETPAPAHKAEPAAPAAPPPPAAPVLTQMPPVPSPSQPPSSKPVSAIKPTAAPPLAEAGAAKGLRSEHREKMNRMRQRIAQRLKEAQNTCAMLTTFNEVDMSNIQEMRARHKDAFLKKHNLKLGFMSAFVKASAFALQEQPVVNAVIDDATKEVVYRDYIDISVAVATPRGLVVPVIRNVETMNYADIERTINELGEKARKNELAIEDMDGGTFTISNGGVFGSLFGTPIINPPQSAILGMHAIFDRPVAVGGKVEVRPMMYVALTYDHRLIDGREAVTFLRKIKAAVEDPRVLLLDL
Nature of the experiment: co-IP.

The target in experiment [2] is T2, OGDH, the E1 subunit of the α-ketoglutarate dehydrogenase complex, mouse (mouse (endogenous in DBA/2J liver)) (UniProt Q60597).
T2 sequence: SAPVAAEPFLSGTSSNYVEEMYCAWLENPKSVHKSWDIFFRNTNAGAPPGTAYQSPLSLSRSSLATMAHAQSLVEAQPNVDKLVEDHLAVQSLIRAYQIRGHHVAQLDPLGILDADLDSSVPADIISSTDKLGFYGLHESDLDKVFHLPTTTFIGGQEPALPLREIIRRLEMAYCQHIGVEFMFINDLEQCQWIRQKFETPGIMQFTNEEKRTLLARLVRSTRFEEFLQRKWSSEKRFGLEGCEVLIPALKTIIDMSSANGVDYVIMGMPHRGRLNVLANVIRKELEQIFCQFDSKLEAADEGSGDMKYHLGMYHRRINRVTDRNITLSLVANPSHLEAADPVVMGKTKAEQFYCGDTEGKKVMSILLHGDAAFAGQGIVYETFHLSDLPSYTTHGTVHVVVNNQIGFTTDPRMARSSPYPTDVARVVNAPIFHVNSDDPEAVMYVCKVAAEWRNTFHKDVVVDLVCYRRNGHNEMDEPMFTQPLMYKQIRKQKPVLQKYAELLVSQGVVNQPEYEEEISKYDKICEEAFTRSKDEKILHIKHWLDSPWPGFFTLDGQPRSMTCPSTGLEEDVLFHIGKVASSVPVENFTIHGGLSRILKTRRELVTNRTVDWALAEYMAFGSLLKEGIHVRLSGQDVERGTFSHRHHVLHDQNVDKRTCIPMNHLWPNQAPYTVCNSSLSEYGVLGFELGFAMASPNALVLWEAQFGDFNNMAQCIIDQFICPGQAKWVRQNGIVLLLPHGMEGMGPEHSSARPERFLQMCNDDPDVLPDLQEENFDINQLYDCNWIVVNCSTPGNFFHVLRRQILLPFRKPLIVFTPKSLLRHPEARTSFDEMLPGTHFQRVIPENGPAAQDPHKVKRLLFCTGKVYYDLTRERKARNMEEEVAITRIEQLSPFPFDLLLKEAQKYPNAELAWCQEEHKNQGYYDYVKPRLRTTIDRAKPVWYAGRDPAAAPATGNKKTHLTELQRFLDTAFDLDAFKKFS
Nature of the experiment: co-IP.

Results are given in words; binding and its absence hold for the method and conditions named. In cells and extracts the contact can be indirect. Some results given as binding are weak or reduced against the parent protein; the word gives no strength.

B1: OGDH, the E1 subunit of the α-ketoglutarate dehydrogenase complex, mouse (enzyme, UniProt Q60597 41-1023)
chain: T2 sequence
Turning to B1, the binding entry in experiment [1] was “binds”.

B2: dihydrolipoyl dehydrogenase (DLD), E3 subunit, mouse (enzyme, UniProt O08749 36-509)
chain: ADQPIEADVTVIGSGPGGYVAAIKSAQLGFKTVCIEKNETLGGTCLNVGCIPSKALLNNSHYYHMAHGKDFASRGIEIPEVRLNLEKMMEQKHSAVKALTGGIAHLFKQNKVVHVNGFGKITGKNQVTATKADGSTQVIDTKNILVATGSEVTPFPGITIDEDTIVSSTGALSLKKVPEKLVVIGAGVIGVELGSVWQRLGADVTAVEFLGHVGGIGIDMEISKNFQRILQRQGFKFKLNTKVTGATKKSDGKIDVSVEAASGGKAEVITCDVLLVCIGRRPFTQNLGLEELGIELDPKGRIPVNNRFQTKIPNIYAIGDVVAGPMLAHKAEDEGIICVEGMAGGAVHIDYNCVPSVIYTHPEVAWVGKSEEQLKEEGIEFKIGKFPFAANSRAKTNADTDGMVKILGHKSTDRVLGAHILGPGAGEMVNEAALALEYGASCEDIARVCHAHPTLSEAFREANLAAAFGKPINF
With B2, the values for the binding result in experiment [1] and in experiment [2] were “binds” and “no binding”, respectively.

B3: dihydrolipoyl succinyltransferase (DLST), E2 subunit, mouse (enzyme, UniProt Q9D2G2 69-454)
chain: T1 sequence (chain, lipoic moiety (detected with an anti-lipoic acid antibody))
modifications: lipoic moiety (detected with an anti-lipoic acid antibody)
As to B3, the binding entry in experiment [2] was “binds”.
